Experimental data: PubChem BioAssay AID1259254 (NCATS, 2017)
This is one part, drawn at random, of about 59,000 deposited reagents. Over the whole deposit, about 1,550 (2.6%) got an active call. 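G2 share is only a proxy for re-replication; each gene was hit by three separate siRNAs, and active genes were retested.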 Further read-outs or replicates are left out here. The record does not give: the amount of reagent.

- Purpose: 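Genome-wide screen for genes that prevent DNA re-replication in cancer cells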 (primary screen)
- System: human HCT116 colorectal cancer cells
- Reagent: single siRNA against human genes
- Duration: 3 days
- Measured: 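Nuclei stained with Hoechst and imaged; cell-cycle phase assigned by DNA content; G2 share scaled per plate, non-targeting siRNA 0%, GMNN siRNA 100%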
- Direction: G2 robust z-score: higher = more G2 cells, more excess DNA replication
- Active means: 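An siRNA counts as active if its G2 robust z-score lies at least 5 MADs above the screen median; here such calls match roughly 38% of GMNN control or more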

{"gene symbol": "WDR46 (WD repeat domain 46)", "PubChem SID": "SID160721865", "G2 robust z-score": 1.08, "call": "inactive"}
{"gene symbol": "WDR46 (WD repeat domain 46)", "PubChem SID": "SID160721867", "G2 robust z-score": 1.95, "call": "inactive"}
{"gene symbol": "WDR46 (WD repeat domain 46)", "PubChem SID": "SID160721868", "G2 robust z-score": 3.64, "call": "inactive"}
{"gene symbol": "KBTBD8 (kelch repeat and BTB domain containing 8)", "PubChem SID": "SID160752390", "G2 robust z-score": -1.2, "call": "inactive"}
{"gene symbol": "KBTBD8 (kelch repeat and BTB domain containing 8)", "PubChem SID": "SID160752391", "G2 robust z-score": 4.93, "call": "inactive"}
{"gene symbol": "KBTBD8 (kelch repeat and BTB domain containing 8)", "PubChem SID": "SID160752392", "G2 robust z-score": -0.603, "call": "inactive"}
{"gene symbol": "CSTF1 (cleavage stimulation factor subunit 1)", "PubChem SID": "SID160749948", "G2 robust z-score": -0.57, "call": "inactive"}
{"gene symbol": "CSTF1 (cleavage stimulation factor subunit 1)", "PubChem SID": "SID160749959", "G2 robust z-score": 0.181, "call": "inactive"}
{"gene symbol": "CSTF1 (cleavage stimulation factor subunit 1)", "PubChem SID": "SID160749970", "G2 robust z-score": -1.01, "call": "inactive"}
{"gene symbol": "WNK3 (WNK lysine deficient protein kinase 3)", "PubChem SID": "SID160748331", "G2 robust z-score": 0.55, "call": "inactive"}
{"gene symbol": "WNK3 (WNK lysine deficient protein kinase 3)", "PubChem SID": "SID160748332", "G2 robust z-score": 0.011, "call": "inactive"}
{"gene symbol": "WNK3 (WNK lysine deficient protein kinase 3)", "PubChem SID": "SID160748334", "G2 robust z-score": -0.921, "call": "inactive"}

Laid out differently: 4 of the entries above
gene symbol | PubChem SID | G2 robust z-score | call
WDR46 (WD repeat domain 46) | SID160721867 | 1.95 | inactive
WDR46 (WD repeat domain 46) | SID160721868 | 3.64 | inactive
KBTBD8 (kelch repeat and BTB domain containing 8) | SID160752390 | -1.2 | inactive
KBTBD8 (kelch repeat and BTB domain containing 8) | SID160752391 | 4.93 | inactive

Additional results:
{"gene symbol": "LHX5 (LIM homeobox 5)", "PubChem SID": "SID160747575", "G2 robust z-score": 0.448, "call": "inactive"}
{"gene symbol": "LHX5 (LIM homeobox 5)", "PubChem SID": "SID160747576", "G2 robust z-score": 1.24, "call": "inactive"}
{"gene symbol": "LHX5 (LIM homeobox 5)", "PubChem SID": "SID160747577", "G2 robust z-score": 0.356, "call": "inactive"}
{"gene symbol": "CASP3 (caspase 3)", "PubChem SID": "SID160752982", "G2 robust z-score": 0.639, "call": "inactive"}
{"gene symbol": "CASP3 (caspase 3)", "PubChem SID": "SID160753084", "G2 robust z-score": 3.88, "call": "inactive"}
{"gene symbol": "CASP3 (caspase 3)", "PubChem SID": "SID160753183", "G2 robust z-score": 0.0622, "call": "inactive"}
{"gene symbol": "HSD17B4 (hydroxysteroid 17-beta dehydrogenase 4)", "PubChem SID": "SID160775353", "G2 robust z-score": 0.0305, "call": "inactive"}
{"gene symbol": "HSD17B4 (hydroxysteroid 17-beta dehydrogenase 4)", "PubChem SID": "SID160775354", "G2 robust z-score": 2.17, "call": "inactive"}
{"gene symbol": "HSD17B4 (hydroxysteroid 17-beta dehydrogenase 4)", "PubChem SID": "SID160775355", "G2 robust z-score": -0.77, "call": "inactive"}
{"gene symbol": "NCAM2 (neural cell adhesion molecule 2)", "PubChem SID": "SID160777806", "G2 robust z-score": -1.08, "call": "inactive"}
{"gene symbol": "NCAM2 (neural cell adhesion molecule 2)", "PubChem SID": "SID160777807", "G2 robust z-score": 1.08, "call": "inactive"}
{"gene symbol": "NCAM2 (neural cell adhesion molecule 2)", "PubChem SID": "SID160777808", "G2 robust z-score": -1.13, "call": "inactive"}
{"gene symbol": "ZNF334 (zinc finger protein 334)", "PubChem SID": "SID160744154", "G2 robust z-score": 4.82, "call": "inactive"}
{"gene symbol": "ZNF334 (zinc finger protein 334)", "PubChem SID": "SID160744155", "G2 robust z-score": 0.932, "call": "inactive"}
{"gene symbol": "ZNF334 (zinc finger protein 334)", "PubChem SID": "SID160744156", "G2 robust z-score": 9.25, "call": "active"}
{"gene symbol": "INO80C (INO80 complex subunit C)", "PubChem SID": "SID160756332", "G2 robust z-score": -1.11, "call": "inactive"}
{"gene symbol": "INO80C (INO80 complex subunit C)", "PubChem SID": "SID160756333", "G2 robust z-score": -1.43, "call": "inactive"}
{"gene symbol": "INO80C (INO80 complex subunit C)", "PubChem SID": "SID160756334", "G2 robust z-score": -0.392, "call": "inactive"}
